{"sequences": {"note": "Amino acid sequences for entries named in this document (tags omitted).", "UniProt P08485, whole entry, looked up": "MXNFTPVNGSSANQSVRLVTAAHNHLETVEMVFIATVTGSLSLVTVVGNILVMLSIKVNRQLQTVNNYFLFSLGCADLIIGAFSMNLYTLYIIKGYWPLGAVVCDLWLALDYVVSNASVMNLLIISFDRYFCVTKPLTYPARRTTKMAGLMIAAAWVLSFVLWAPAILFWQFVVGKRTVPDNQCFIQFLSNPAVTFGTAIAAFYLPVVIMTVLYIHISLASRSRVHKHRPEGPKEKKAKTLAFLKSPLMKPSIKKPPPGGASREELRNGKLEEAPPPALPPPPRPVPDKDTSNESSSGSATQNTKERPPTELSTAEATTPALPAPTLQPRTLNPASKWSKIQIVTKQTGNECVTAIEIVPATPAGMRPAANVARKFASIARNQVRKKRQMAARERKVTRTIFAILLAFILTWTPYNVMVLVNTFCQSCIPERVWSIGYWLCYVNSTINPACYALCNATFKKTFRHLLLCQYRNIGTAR"}, "source": "PubChem BioAssay AID1741", "about": "(Vanderbilt High Throughput Screening Facility, 2009)", "note": "About 150 (8.8%) of roughly 1,700 compounds were called active. The shares of active, inactive and inconclusive entries below differ from those in the screen.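 The calls were made as follows: active = fluorescence change differing from the plate's solvent-only control wells at 99.7% confidence in both duplicates, whether higher or lower; inconclusive = differs from solvent controls in only one of two duplicates; inactive = the rest.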", "data": [{"target": "Muscarinic acetylcholine receptor M4 (Rattus norvegicus) (UniProt P08485)", "assay": "rat M4 muscarinic receptor activation – cell-based, agonist mode, counter-screen for M1 allosteric modulator project, confirmation (AID 1741)", "conditions": "CHO M4/Gqi5 cells, Fluo-4 calcium fluorescence, at 10 µM, actives lie on both sides", "values": [{"smiles": "CC(=O)[C@H]1[C@@H]2C(=O)N(c3cccc(Cl)c3)C(=O)[C@@H]2[C@H]2c3ccccc3C=CN21", "fluorescence change (max-min)": "inconclusive: 116"}, {"smiles": "COCCn1c(N)c(C(=O)NCC2CCCO2)c2nc3ccccc3nc21", "note": "(stereo unspecified)", "fluorescence change (max-min)": "inconclusive: -117"}, {"smiles": "CCOc1ccc(C2=[N+]([O-])C(C)(C)N(O)C2(C)C)cc1", "fluorescence change (max-min)": "inconclusive: -195"}, {"smiles": "Cc1n[nH]c(C)c1N1C(=O)c2cccc3c(N4CCCCCC4)ccc(c23)C1=O", "fluorescence change (max-min)": "active: 2510"}, {"smiles": "CCOc1ccc(NC(=O)CC2CC(C)(C)OC2=O)cc1", "note": "(stereo unspecified)", "fluorescence change (max-min)": "inconclusive: -60.3"}, {"smiles": "CN1CCc2c(sc3c2C(=O)NC(c2cccc(OC(=O)c4cccs4)c2)N3)C1", "note": "(stereo unspecified)", "fluorescence change (max-min)": "inactive: 41.1"}, {"smiles": "Cn1c2ccc(Cl)cc2c2nc3ccccc3nc21", "fluorescence change (max-min)": "inactive: 2.58"}, {"smiles": "COC(=O)c1ccc2c(=O)sc(N3CCC(C(N)=O)CC3)nc2c1", "fluorescence change (max-min)": "active: 136"}, {"smiles": "COc1cc(C(=O)Nc2nccs2)c(Br)c(OC)c1OC", "fluorescence change (max-min)": "inactive: -41.1"}, {"smiles": "CCn1c(COc2cccc(OC)c2)nnc1SCC(=O)Nc1cccc(OC)c1", "fluorescence change (max-min)": "inactive: -32.6"}, {"smiles": "CCCCCCc1cc2cc(C(=O)NC)c(=N)oc2cc1O", "fluorescence change (max-min)": "active: 2760"}, {"smiles": "COc1ccc(N2CCN(C(=O)CSc3nnnn3-c3ccc4c(c3)OCCO4)CC2)cc1", "fluorescence change (max-min)": "inconclusive: -52.6"}, {"smiles": "Cc1nc2nc(-c3cccs3)cn2nc1C", "fluorescence change (max-min)": "active: 1010"}, {"smiles": "Clc1c(CSc2nc3ccccc3o2)nc2ccccn12", "fluorescence change (max-min)": "inactive: -22.8"}, {"smiles": "CC(=O)N1CCc2c(sc(NC(=O)C3CC3)c2-c2nc3ccccc3s2)C1", "fluorescence change (max-min)": "inconclusive: -75.9"}, {"smiles": "COC(=O)COc1ccc(S(=O)(=O)NCc2ccncc2)cc1", "fluorescence change (max-min)": "inconclusive: -85.6"}, {"smiles": "COc1ccc(-c2ccc(-c3noc(C4CCCCC4)n3)c(OC)n2)cc1", "fluorescence change (max-min)": "inconclusive: -98"}, {"smiles": "CC1(C)CC(=O)C2=C(C1)N(c1cccc(O)c1)C1=C(C2)C(=O)CC(C)(C)C1", "fluorescence change (max-min)": "active: 170"}, {"smiles": "COC(=O)CSc1nnc(CNC(=O)c2ccco2)n1-c1ccc(F)cc1", "fluorescence change (max-min)": "inconclusive: -54.6"}, {"smiles": "N#CC(C(=O)NC1CCCCC1)c1nc2ccccc2nc1N1CCN(c2ccc(F)cc2)CC1", "note": "(stereo unspecified)", "fluorescence change (max-min)": "inconclusive: 97.5"}, {"smiles": "CCOC(=O)N1CCN(C(=O)c2nn(-c3cc(OC)cc(OC)c3)c(=O)c3ccccc23)CC1", "fluorescence change (max-min)": "inconclusive: -26.5"}, {"smiles": "O=C(NCC(=O)N(Cc1cccs1)C(C(=O)NC1CCCC1)c1ccco1)c1cccs1", "note": "(stereo unspecified)", "fluorescence change (max-min)": "inconclusive: -107"}, {"smiles": "Cn1c(C(=O)NC2CCCCC2)cc2c(=O)n(C)c3ccccc3c21", "fluorescence change (max-min)": "inconclusive: -62.9"}, {"smiles": "CC1(C)Cc2c(C#N)c(SCC(=O)c3ccccc3)nc(N3CCOCC3)c2CO1", "fluorescence change (max-min)": "inconclusive: -87.2"}, {"smiles": "COc1ccccc1NC(=O)Cc1nn(C)c(=O)c2ccccc12", "fluorescence change (max-min)": "inconclusive: -151"}, {"smiles": "CC(C)c1cc(=O)oc2c3c4c(cc12)CCCN4CCC3", "fluorescence change (max-min)": "active: 614"}, {"smiles": "CCOC(=O)C1CCCN(c2ncnc3c2oc2ccccc23)C1", "note": "(stereo unspecified)", "fluorescence change (max-min)": "inactive: -43.8"}, {"smiles": "COc1ccc(C2=CC(c3ccc(Cl)cc3)n3cnnc3N2)cc1OC", "note": "(stereo unspecified)", "fluorescence change (max-min)": "active: 190"}, {"smiles": "COc1ccc(C2=NOC(C(=O)N3CCN(c4ccccc4OC)CC3)C2)cc1", "note": "(stereo unspecified)", "fluorescence change (max-min)": "inconclusive: -40.8"}, {"smiles": "Cn1c(C(=O)NC2CCCCCC2)cc2c(=O)n(C)c3ccccc3c21", "fluorescence change (max-min)": "inconclusive: -65.9"}, {"smiles": "CCCCN(CCCC)C(=O)CSc1nnc(-c2cc(OC)c(OC)c(OC)c2)o1", "fluorescence change (max-min)": "inconclusive: -153"}, {"smiles": "Cc1ccccc1Nc1cc2ccccc2c(=O)[nH]1", "fluorescence change (max-min)": "inactive: 43.6"}, {"smiles": "CCOC(=O)C1CCN(C(=O)CSCc2nc(-c3ccc(OCC)cc3)oc2C)CC1", "fluorescence change (max-min)": "inconclusive: -108"}, {"smiles": "COc1cccc2cc(-c3nc(-c4cccs4)cs3)c(=O)oc12", "fluorescence change (max-min)": "inconclusive: 108"}, {"smiles": "O=c1[nH]c2cc3c(cc2cc1CN(Cc1nnnn1CC1CCCO1)C1CCCCC1)OCO3", "note": "(stereo unspecified)", "fluorescence change (max-min)": "inconclusive: 74.9"}, {"smiles": "CC(=O)c1c(C)[nH]c(C(=O)NCCc2cccc(C)c2)c1C", "fluorescence change (max-min)": "inconclusive: -171"}, {"smiles": "Cc1ccccc1Cn1ccc(NC(=O)c2cnn3c(C(F)(F)F)cc(-c4ccco4)nc23)n1", "fluorescence change (max-min)": "inconclusive: -84.8"}, {"smiles": "CC(C)[C@H](NC(=O)[C@@H]1CSCN1C(=O)OC(C)(C)C)C(=O)NCC1CCC(C(=O)O)CC1", "note": "(stereo partly specified)", "fluorescence change (max-min)": "inconclusive: -37"}, {"smiles": "O=C(Nc1ccc(S(=O)(=O)N2CCCCC2)cc1)c1ccncc1", "fluorescence change (max-min)": "active: -72.2"}, {"smiles": "O=C(c1ccco1)N1CCN(C(=O)c2cc(-c3ccccn3)nc3ccccc23)CC1", "fluorescence change (max-min)": "inactive: -74.2"}, {"smiles": "CC1CCc2cccc3c2N1c1cc(C#N)c(C#N)cc1O3", "note": "(stereo unspecified)", "fluorescence change (max-min)": "inactive: -16.1"}, {"smiles": "CCOn1c(=O)c(-c2ccc(OC)cc2)[n+]([O-])c2ccccc21", "fluorescence change (max-min)": "inactive: -92"}, {"smiles": "CCOc1ccc(CC(=O)NCc2cn3c(C)csc3n2)cc1", "fluorescence change (max-min)": "inconclusive: -111"}, {"smiles": "C=CCNS(=O)(=O)c1cccc2cc(C(=O)O)c(O)cc12", "fluorescence change (max-min)": "inactive: 9.02"}, {"smiles": "CCc1ccc(Cn2nnc(C(=O)NCc3ccccc3OC)c2N)cc1", "fluorescence change (max-min)": "inactive: -23.3"}, {"smiles": "COc1ccc(NC(=O)C2Cc3ccccc3CN2C(=O)c2ccccc2)cn1", "note": "(stereo unspecified)", "fluorescence change (max-min)": "inconclusive: 61.3"}, {"smiles": "CCOc1cccc(C(=O)Nc2cccc(-c3nc4ncccc4o3)c2C)c1", "fluorescence change (max-min)": "active: -79.7"}, {"smiles": "CCc1c(-c2ccccc2)nc2nc(C)c(C)nn12", "fluorescence change (max-min)": "active: 219"}, {"smiles": "O=C(CSc1nnc(-c2ccco2)n1Cc1ccccc1)NC(=O)NCc1ccco1", "fluorescence change (max-min)": "inactive: -23.1"}, {"smiles": "CC(C)(C)OC(=O)N1CC=C2C(C#N)=C(N)C(C#N)(C#N)C(c3cccs3)C2C1", "note": "(stereo unspecified)", "fluorescence change (max-min)": "inconclusive: -182"}, {"smiles": "Cc1ccc(S(=O)(=O)N2CCOCC2)cc1C(=O)Nc1ccc(-c2cn3ccsc3n2)cc1", "fluorescence change (max-min)": "inconclusive: -59.3"}, {"smiles": "COC(=O)c1ccc(CSc2nc3ccccc3c(=O)n2-c2cccc(OC)c2)o1", "fluorescence change (max-min)": "inactive: -28.9"}, {"smiles": "Cc1c(C(=O)Nc2ccc(F)cc2)oc2ccc(S(=O)(=O)N3CCC4(CC3)OCCO4)cc12", "fluorescence change (max-min)": "inactive: -34.9"}, {"smiles": "CCN(CC)CCN1C(=O)C(=O)/C(=C(/O)c2ccncc2)C1c1ccccc1F", "note": "(stereo unspecified)", "fluorescence change (max-min)": "inconclusive: -40.8"}, {"smiles": "O=C(c1nc(-c2ccccc2)n(-c2ccccc2)n1)N1CCN(S(=O)(=O)c2ccccc2)CC1", "fluorescence change (max-min)": "inconclusive: -46.9"}, {"smiles": "CCN(CC)S(=O)(=O)c1cccc(-c2nnc(SCCOc3ccccc3C)o2)c1", "fluorescence change (max-min)": "inconclusive: -98.4"}]}]}
